Several values for one entry are separate records, joined by “and”; a condition that tells them apart may be missing. Equal values may be shown once. Inconclusive results, whose numbers are uncertain, are shown with a selection of clear calls. Where the call is inconclusive, the potency comes from a doubtful curve fit. Activity calls are given as the source filed them. The call rests on the fitted dose curve.
target: Beta-2 adrenergic receptor (Homo sapiens) (UniProt P07550); assay: Adrenergic beta2 receptor (ADRB2) small molecule agonists, cell-based qHTS assay (AID 1963593); settings: CHO-ADRB2 cells, cAMP HTRF, 30 min; activation: at 92.4 µM (top of the series) unless noted
Source text: National Center for Advancing Translational Sciences [NCATS]
Division of Preclinical Innovation [DPI]
U.S. Environmental Protection Agency [EPA]
National Institutes of Environmental Health Sciences [NIEHS]
National Toxicology Program [NTP]
U.S. Food and Drug Administration [FDA]
Beta adrenergic receptors (Beta-ARs) belong to the G-protein coupled receptor (GPCR) superfamily, includes three subtypes - beta1, beta2, and beta3. Beta1-AR is the predominant receptor subtype expressed in the heart, and beta2-AR is expressed in the kidney, lung, blood vessel and in the heart, and beta3 is found in the adipocytes. Beta1 and 2 ARs couple to Gs protein and elevate cyclic adenosine mono phosphate (cAMP), which activates protein kinase A and leads to the downstream signaling responsible for the physiological actions. Beta-AR agonists or antagonists are the most prescribed therapeutic agents for heart failure and asthma, and these were one of the first target receptors for the rational drug design. Tox21 10K compound library was screened using the cAMP-Gs dynamic assay (Cisbio Bioassays, Shelton, CT) to identify agonists/antagonists of the Gs-coupled human adrenergic, beta2 receptor (ADRB2) in the CHO-ADRB2 cell line (Codex BioSolutions, Inc. Gaithersburg, MD), which stably over-expresses ADRB2. The principle of cAMP-Gs dynamic assay is based on HTRF technology, which facilitates the fluorescence resonance energy transfer (FRET) between donor Europium cryptate and acceptor d2-labeled cAMP. The cAMP generated within cells competes with the red acceptor, d2-labled cAMP, for binding to the monoclonal anti-cAMP-cryptate (Europium donor). An increase in intracellular cAMP leads to the disruption of FRET signal, and the signal is inversely proportional to the cAMP concentration. Isoproterenol HCl (Sigma-Aldrich, St. Louis, MO) was used as a positive control in the screening.
Tox21 Assay Protocol Summary:
CHO-ADRB2 cells were dispensed at 1,000/well in 4uL assay medium into white/solid 1536-well plates (Greiner Bio-One North America Inc., Monroe, NC) using a Multidrop Combi dispenser (ThermoFisher Scientific, Waltham, MA). The assay plates were incubated at 37C and 5% CO2 for an overnight (18-20hr). Then positive control and test compounds dissolved in DMSO were transferred to the assay plates at 23nL using a Pintool station (Wako, San Diego, CA). Following the compound and positive control transfer, 1uL stimulation mix containing 100uM IBMX and 25uM Ro-20-1724 was added to each well of the assay plates using BioRAPTR Flying Reagent Dispenser (FRD, Beckman Coulter, Brea, CA). The assay plates were incubated at room temperature for 0.5hr. Then 2.5ul each d2-labled cAMP and anti-cAMP-cryptate solutions were added separately to each well of the assay plates using an FRD and the assay plates were incubated at room temperature for 1hr.
On the % scale 0 is the no-effect control and ±100 the full control effect; potency means the concentration at half of the fitted maximal effect.

| Compound | Potency | activation |
| --- | --- | --- |
| OC(c1ccc(Cl)cc1)(c1ccc(Cl)cc1)c1cccnc1 | inconclusive: 61.1 µM [inhibitor] | – |
| CCOS(C)(=O)=O | – | inconclusive: 20.5% |
| C=CCC1=C(C)[C@@H](OC(=O)[C@@H]2[C@@H](C=C(C)C)C2(C)C)CC1=O | – | inconclusive: 37.4% |
| NNC(=O)c1ccccc1 | – | inconclusive: -41% |
| CCCBr | – | inconclusive: 1.65% |
| COP(=O)(OC)SCn1c(=O)oc2cc(Cl)cnc21 | inactive | – |
| CS(=O)(=O)c1cc(C(F)(F)F)ccc1C(=O)c1cnoc1C1CC1 | – | inconclusive: -3.7% |
| CC(C)(C)c1ccccc1O | inconclusive: 5.51 µM [inhibitor, partial curve, poor fit] | – |
| CC(C)(N)Cc1ccccc1Cl | – | inconclusive: -4.54% [at 42.5 µM] |
| COC(=O)NS(=O)(=O)c1ccc(N)cc1 | – | inconclusive: 2.07% |
| CCCCCCCCSC(=O)Oc1cc(Cl)nnc1-c1ccccc1 | – | inconclusive: -9.72% |
| COC(=O)Nc1nc2ccccc2[nH]1 | – | inconclusive: 5.9% |
| Nc1cc(Cl)ccc1O | – | inconclusive: -17% |
| CCC[N+]1(C)CCCCC1 | inconclusive: 488 nM [inhibitor, full curve, poor fit] and inconclusive: 68.5 nM [inhibitor, partial curve, poor fit] | inconclusive: -20.9% |
| O=C(Cl)c1ccc(Cl)cc1 | inactive | – |
| CCOC(=O)CP(=O)(OCC)OCC | inconclusive: 2.43 µM [inhibitor, single point] | – |
| C=CCc1ccccc1O | – | inconclusive: 4.92% |
| O=C(O)CC(O)(CC(=O)O)C(=O)O | inconclusive: 2.73 µM [inhibitor, single point] | – |
| O=[N+]([O-])c1cccc2cccnc12 | inactive | – |
| CC[n+]1ccccc1 | inconclusive: 68 µM [inhibitor, partial curve] and inconclusive: 545 nM [inhibitor, single point] | inconclusive: 34.3% and inconclusive: -43.1% |
| CC(C)Nc1ccc(Nc2ccccc2)cc1 | inconclusive: 68.3 µM | inconclusive: -78.5% |
| ClC1=C(Cl)C2(Cl)C(CBr)CC1(Cl)C2(Cl)Cl (stereo unspecified) | – | inconclusive: 2.19% [at 42.5 µM] |
| Nc1ccc(-c2ccccc2)cc1 | inconclusive: 7.91 µM [inhibitor, partial curve, poor fit] | inconclusive: -46.3% |
| CCc1cccc(C)c1N(C(=O)CCl)C(C)COC (stereo unspecified) | inconclusive: 6.46 µM [inhibitor, single point] | – |
| Nc1ccc([N+](=O)[O-])cc1[N+](=O)[O-] | – | inconclusive: -33.9% |
| Oc1cc(Cl)c(Cl)c(Cl)c1Cl | inconclusive: 59.7 µM [inhibitor, partial curve] | – |
| CSC(=O)c1c(C(F)F)nc(C(F)(F)F)c(C(=O)SC)c1CC(C)C | – | inconclusive: 38.7% |
| Oc1ccc(Cl)cc1Cc1ccccc1 | inconclusive: 68.6 µM [inhibitor, partial curve] and inconclusive: 981 nM [inhibitor] and inactive | – |
| CCCCCCCCCCCC#N | inconclusive: 15.5 µM [inhibitor, single point] | inconclusive: 3.24% |

Some of the entries so far, as labelled records.
O=[N+]([O-])c1cccc2cccnc12
  Potency: inactive
CC[n+]1ccccc1
  Potency: inconclusive: 68 µM [inhibitor, partial curve] and inconclusive: 545 nM [inhibitor, single point]; activation: inconclusive: 34.3% and inconclusive: -43.1%

same assay, conditions: CHO-ADRB2 cells, cAMP HTRF, 30 min; at 8.39 µM (top of the series)

| Compound | activation |
| --- | --- |
| O=C(O)CC(O)(CC(=O)O)C(=O)O | inconclusive: -2.56% |

same assay, conditions: CHO-ADRB2 cells, cAMP HTRF, 30 min; at 92.4 µM (top of the series)

| Compound | activation |
| --- | --- |
| COC(=O)NS(=O)(=O)c1ccc(N)cc1 | inactive: 2.58% |
| COC(=O)Nc1nc2ccccc2[nH]1 | inactive: -23.6% |
| CCC[N+]1(C)CCCCC1 | inactive: 0.885% |
| O=C(O)CC(O)(CC(=O)O)C(=O)O | inconclusive: 4.4% |
| CC[n+]1ccccc1 | inactive: 28.5% |
| ClC1=C(Cl)C2(Cl)C(CBr)CC1(Cl)C2(Cl)Cl (stereo unspecified) | inactive: -0.652% |

— PubChem BioAssay (Tox21)
